Many values rest on one well or one pass, so single values are uncertain.
Compound: [O-][N+](C(C1=C(C(O)=C2)NC(C(C=C3)=CC=C3Cl)C4C1C=CC4)=C2Cl)=O
Assay: melting temperature shift (compound 7 minus DMSO); higher = compound stabilises the protein
Settings: 10 µM
Description: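 Thermal proteome profiling (TMT mass spectrometry) in intact DAOY medulloblastoma cells or DAOY lysates treated with 10 µM compound 7 or DMSO, heated at 10 temperatures from 40.5 to 73.8 °C for 3 min. Melting curves were fitted with the Bioconductor TPP package, and the melting point difference between compound and vehicle is reported per protein (single curve per condition).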

Protein sequences, listed by entry. Tags and fused reporters are not part of them. Lines headed by an entry give the natural chain unless they say otherwise; changes in a name come on top.
UniProt P51812, whole entry: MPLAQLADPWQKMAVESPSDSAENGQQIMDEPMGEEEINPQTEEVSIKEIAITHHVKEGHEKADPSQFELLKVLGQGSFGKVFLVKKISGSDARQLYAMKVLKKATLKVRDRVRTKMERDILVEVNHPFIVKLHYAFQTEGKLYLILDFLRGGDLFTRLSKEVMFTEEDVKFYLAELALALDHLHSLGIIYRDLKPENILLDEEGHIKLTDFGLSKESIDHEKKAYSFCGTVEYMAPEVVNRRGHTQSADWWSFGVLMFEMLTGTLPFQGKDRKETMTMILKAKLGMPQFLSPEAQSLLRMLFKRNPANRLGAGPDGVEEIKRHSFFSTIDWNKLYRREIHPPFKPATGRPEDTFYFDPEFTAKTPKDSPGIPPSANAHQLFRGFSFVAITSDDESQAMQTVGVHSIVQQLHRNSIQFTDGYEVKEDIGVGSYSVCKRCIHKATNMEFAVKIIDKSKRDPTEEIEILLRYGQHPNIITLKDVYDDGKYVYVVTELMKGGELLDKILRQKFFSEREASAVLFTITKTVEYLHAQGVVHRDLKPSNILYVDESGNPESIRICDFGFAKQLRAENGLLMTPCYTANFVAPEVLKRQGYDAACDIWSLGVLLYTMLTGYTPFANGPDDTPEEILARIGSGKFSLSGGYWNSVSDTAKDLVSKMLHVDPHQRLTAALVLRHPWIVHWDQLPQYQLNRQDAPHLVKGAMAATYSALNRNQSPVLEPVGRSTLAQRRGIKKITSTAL
UniProt Q8NG31: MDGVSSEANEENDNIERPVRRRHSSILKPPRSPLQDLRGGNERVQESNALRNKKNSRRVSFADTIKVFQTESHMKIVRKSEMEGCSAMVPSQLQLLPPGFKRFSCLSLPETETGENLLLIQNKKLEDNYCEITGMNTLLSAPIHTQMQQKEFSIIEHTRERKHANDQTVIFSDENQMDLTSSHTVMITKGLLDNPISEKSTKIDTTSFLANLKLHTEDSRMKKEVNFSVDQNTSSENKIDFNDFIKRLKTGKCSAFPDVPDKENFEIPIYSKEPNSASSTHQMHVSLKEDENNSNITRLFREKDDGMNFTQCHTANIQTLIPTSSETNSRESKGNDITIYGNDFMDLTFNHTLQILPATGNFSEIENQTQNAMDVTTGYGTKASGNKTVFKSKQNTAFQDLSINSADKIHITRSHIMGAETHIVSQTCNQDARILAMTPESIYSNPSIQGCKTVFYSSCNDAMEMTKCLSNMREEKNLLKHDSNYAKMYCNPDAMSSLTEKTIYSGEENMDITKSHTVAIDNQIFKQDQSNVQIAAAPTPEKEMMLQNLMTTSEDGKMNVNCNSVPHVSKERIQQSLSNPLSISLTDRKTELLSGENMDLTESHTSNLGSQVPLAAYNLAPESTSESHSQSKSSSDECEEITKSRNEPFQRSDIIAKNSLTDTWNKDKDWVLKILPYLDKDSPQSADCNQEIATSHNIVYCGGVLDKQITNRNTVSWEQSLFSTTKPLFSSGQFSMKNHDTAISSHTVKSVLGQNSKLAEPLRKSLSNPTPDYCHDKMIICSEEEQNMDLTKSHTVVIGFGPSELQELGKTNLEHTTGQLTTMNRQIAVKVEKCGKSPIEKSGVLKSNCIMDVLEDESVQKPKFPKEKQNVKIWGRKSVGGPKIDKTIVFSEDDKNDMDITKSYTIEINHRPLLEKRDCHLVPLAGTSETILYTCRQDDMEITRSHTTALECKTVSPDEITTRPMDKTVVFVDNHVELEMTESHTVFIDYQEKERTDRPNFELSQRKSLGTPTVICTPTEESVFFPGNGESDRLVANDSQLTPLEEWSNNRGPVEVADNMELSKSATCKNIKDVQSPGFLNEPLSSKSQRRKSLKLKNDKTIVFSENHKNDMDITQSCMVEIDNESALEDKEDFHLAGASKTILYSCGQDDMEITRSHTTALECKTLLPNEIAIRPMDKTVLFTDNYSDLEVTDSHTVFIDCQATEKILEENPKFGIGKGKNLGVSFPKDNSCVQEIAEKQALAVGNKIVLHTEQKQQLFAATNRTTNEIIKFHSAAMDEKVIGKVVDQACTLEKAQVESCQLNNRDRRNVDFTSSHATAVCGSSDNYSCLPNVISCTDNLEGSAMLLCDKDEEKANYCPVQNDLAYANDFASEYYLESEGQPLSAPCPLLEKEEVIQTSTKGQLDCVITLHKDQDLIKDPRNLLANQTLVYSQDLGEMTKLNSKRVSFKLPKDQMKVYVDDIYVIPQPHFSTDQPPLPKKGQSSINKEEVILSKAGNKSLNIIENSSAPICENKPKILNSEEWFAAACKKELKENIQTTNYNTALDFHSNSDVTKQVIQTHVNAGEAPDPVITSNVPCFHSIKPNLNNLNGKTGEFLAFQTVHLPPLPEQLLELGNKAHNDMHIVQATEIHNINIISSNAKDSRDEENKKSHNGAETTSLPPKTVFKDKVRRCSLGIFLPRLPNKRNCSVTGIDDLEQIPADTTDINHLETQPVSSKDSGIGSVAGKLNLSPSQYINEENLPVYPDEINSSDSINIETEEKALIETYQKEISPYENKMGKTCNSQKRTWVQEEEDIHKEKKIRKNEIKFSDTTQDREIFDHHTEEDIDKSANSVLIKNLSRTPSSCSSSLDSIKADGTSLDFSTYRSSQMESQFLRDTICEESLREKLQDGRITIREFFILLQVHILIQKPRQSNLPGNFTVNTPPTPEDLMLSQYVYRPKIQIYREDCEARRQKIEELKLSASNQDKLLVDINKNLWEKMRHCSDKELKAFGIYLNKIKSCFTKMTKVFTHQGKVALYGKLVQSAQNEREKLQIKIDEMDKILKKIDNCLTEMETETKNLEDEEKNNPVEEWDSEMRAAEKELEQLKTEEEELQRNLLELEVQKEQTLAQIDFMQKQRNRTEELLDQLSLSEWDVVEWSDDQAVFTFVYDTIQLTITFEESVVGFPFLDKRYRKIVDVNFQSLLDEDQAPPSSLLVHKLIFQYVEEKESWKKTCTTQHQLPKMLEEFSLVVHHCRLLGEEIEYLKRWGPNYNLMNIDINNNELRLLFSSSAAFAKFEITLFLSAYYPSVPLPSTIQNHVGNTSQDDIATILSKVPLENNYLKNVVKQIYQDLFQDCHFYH
UniProt Q6ZT12: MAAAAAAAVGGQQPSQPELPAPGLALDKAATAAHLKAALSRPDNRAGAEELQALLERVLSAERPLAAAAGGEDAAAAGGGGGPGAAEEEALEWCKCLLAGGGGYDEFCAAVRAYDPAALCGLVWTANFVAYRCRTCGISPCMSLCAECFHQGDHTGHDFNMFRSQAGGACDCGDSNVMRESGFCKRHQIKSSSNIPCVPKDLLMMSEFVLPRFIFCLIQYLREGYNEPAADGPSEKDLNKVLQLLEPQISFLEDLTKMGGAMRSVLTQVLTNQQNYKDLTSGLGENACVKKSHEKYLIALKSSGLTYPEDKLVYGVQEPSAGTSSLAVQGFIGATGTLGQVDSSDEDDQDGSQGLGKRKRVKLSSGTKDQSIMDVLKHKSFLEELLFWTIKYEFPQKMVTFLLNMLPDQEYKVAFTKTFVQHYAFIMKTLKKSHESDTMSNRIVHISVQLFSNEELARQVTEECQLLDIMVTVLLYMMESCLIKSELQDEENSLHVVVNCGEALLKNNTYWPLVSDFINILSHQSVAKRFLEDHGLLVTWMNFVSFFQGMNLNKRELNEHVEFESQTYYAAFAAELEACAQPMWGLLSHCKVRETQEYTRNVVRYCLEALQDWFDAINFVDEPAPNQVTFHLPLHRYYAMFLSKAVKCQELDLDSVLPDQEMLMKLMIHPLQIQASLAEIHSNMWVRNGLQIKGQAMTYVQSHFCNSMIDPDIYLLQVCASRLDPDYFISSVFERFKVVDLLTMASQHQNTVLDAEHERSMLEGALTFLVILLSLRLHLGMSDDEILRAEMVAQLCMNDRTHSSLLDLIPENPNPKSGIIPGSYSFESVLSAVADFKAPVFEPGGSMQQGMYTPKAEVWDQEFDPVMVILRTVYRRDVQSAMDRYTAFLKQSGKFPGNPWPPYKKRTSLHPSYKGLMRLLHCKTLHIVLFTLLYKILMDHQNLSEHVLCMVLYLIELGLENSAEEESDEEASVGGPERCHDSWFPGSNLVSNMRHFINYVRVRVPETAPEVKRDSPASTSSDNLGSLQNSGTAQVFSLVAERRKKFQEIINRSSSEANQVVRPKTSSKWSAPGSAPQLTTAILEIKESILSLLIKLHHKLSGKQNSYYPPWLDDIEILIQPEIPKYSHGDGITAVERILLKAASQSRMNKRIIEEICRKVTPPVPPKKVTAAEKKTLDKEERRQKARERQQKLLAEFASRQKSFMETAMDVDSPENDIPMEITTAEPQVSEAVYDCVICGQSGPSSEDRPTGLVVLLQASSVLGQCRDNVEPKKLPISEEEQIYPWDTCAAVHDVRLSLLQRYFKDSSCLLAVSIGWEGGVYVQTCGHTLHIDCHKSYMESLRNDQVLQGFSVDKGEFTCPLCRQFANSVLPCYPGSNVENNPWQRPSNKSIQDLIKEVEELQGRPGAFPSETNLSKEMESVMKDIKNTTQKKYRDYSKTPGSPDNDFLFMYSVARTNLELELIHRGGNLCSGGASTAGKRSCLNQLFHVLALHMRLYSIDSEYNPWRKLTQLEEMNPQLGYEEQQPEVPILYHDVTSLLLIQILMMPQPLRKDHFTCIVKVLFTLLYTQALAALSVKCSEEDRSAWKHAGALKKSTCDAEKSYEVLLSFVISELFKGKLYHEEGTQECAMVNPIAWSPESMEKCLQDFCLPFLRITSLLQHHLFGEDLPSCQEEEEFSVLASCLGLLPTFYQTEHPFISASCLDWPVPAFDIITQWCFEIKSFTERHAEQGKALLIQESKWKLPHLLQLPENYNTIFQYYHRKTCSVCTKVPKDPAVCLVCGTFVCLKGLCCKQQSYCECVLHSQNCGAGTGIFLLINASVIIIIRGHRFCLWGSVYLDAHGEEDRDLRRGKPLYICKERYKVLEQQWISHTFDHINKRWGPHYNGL
UniProt P68371, whole entry: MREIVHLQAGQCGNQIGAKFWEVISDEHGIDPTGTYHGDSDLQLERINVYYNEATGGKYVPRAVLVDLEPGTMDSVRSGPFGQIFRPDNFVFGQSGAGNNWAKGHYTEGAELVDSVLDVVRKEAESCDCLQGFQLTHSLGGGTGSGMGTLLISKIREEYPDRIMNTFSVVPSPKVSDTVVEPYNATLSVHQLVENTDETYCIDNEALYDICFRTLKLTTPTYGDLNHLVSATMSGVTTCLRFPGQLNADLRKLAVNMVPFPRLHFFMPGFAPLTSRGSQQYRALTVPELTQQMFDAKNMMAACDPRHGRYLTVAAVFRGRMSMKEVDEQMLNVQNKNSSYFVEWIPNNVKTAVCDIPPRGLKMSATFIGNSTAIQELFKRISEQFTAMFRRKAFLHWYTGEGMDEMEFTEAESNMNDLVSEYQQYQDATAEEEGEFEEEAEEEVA
UniProt O60518: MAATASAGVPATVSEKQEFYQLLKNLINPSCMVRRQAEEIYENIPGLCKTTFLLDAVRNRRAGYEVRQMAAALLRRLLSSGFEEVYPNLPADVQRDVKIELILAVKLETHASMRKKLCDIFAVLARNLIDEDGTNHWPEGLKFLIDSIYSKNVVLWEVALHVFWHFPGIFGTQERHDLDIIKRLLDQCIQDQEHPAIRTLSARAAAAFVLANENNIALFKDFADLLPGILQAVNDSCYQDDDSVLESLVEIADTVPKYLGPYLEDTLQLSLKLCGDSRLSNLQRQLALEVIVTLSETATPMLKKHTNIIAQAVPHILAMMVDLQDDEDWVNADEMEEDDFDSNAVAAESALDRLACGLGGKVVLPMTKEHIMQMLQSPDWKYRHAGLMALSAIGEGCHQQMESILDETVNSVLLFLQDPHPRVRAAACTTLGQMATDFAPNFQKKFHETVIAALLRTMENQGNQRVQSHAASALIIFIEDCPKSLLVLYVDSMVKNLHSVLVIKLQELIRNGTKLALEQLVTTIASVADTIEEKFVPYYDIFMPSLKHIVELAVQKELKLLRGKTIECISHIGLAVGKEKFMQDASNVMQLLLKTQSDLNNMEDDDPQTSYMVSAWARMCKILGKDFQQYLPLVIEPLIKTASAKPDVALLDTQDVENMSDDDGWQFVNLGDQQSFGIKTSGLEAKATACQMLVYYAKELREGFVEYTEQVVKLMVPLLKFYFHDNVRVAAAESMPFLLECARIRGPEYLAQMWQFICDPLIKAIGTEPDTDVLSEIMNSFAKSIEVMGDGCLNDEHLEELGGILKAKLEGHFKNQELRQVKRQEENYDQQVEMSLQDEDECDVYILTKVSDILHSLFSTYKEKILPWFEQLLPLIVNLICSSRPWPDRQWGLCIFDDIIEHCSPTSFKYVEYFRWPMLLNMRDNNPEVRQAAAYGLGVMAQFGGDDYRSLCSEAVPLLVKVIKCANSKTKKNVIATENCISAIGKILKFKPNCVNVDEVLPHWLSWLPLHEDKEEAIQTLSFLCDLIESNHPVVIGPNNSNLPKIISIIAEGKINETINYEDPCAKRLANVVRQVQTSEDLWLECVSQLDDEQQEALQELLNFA

[1] = system: intact DAOY cells, treatment time: 90 min, 37 °C
[2] = system: DAOY cell lysate, treatment time: 20 min, 4 °C

Target | melting temperature shift [1] | melting temperature shift [2]
UniProt Q9Y6Q5 | 0.558 °C | 
SCFD1 (UniProt Q8WVM8) | -0.571 °C | 1.23 °C
DNAJB1 (UniProt P25685) | -1.04 °C | -0.896 °C
CDK3 (UniProt Q00526) | 0.146 °C | 
UniProt Q96T23 | -0.138 °C | 1.79 °C
SMC1A (UniProt Q14683) | -0.643 °C | 0.494 °C
PPP2R1B (UniProt P30154) | 0.31 °C | 0.208 °C
UniProt P41743 | 0.0866 °C | 0.363 °C
CAMK2A (UniProt Q9UQM7) | -0.273 °C | 
IRF3 (UniProt Q14653) | -0.00612 °C | -0.253 °C
HINT1 (UniProt P49773) | -0.398 °C | -0.353 °C
NANS (UniProt Q9NR45) | 0.974 °C | -0.0686 °C
WRNIP1 (UniProt Q96S55) | -3.34 °C | -1.76 °C
UniProt P81274 | -0.219 °C | 0.472 °C
PHLDB2 (UniProt Q86SQ0) | -1.03 °C | -0.236 °C
UniProt Q96A05 | 1.01 °C | 
FCHSD2 (UniProt O94868) |  | 0.607 °C
DYNC1LI1 (UniProt Q9Y6G9) | -0.351 °C | -0.883 °C
RPS6KA3 (UniProt P51812) | 0.00506 °C | -0.625 °C
EZR (UniProt P15311) | 0.437 °C | -0.0147 °C
PEX1 (UniProt O43933) | 0.928 °C | 
MYLK (UniProt Q15746) | 0.783 °C | -0.68 °C

Target | melting temperature shift [1] | melting temperature shift [2]
CASC5 (UniProt Q8NG31) | 2.07 °C | 0.388 °C
NUTF2 (UniProt P61970) |  | 1.97 °C
BRD3 (UniProt Q15059) | -0.513 °C | -0.665 °C
FUS (UniProt P35637) |  | 4.49 °C
CASP4 (UniProt P49662) | 0.274 °C | -0.0413 °C
KIF3B (UniProt O15066) | -0.649 °C | -0.594 °C
UniProt Q8WTZ3 |  | 0.11 °C
RPS11 (UniProt P62280) | -0.832 °C | 0.489 °C
UTP15 (UniProt Q8TED0) | -0.469 °C | 1.25 °C
UniProt Q58FF3 | 0.769 °C | 
DPYSL2 (UniProt Q16555) | -0.701 °C | -0.739 °C
UniProt P49840 | -0.367 °C | -0.439 °C
UniProt Q8N0W7 |  | 1.86 °C
CSTF1 (UniProt Q05048) | 0.492 °C | -0.0219 °C
UniProt P32456 | 0.181 °C | -0.864 °C
MORC3 (UniProt Q14149) | 0.562 °C | -0.779 °C
FASTKD2 (UniProt Q9NYY8) | -0.159 °C | 0.681 °C
COQ7 (UniProt Q99807) | -0.462 °C | 1.11 °C
RTFDC1 (UniProt Q9BY42) | -0.257 °C | -0.408 °C
FAU (UniProt P62861) | 1.44 °C | 1.71 °C
LRRC40 (UniProt Q9H9A6) | -0.576 °C | -0.699 °C
DHX9 (UniProt Q08211) | -0.424 °C | 0.248 °C

Target | melting temperature shift [1] | melting temperature shift [2]
RBM39 (UniProt Q14498) | -0.755 °C | -0.193 °C
WDR75 (UniProt Q8IWA0) |  | 0.758 °C
CRTAP (UniProt O75718) | 0.944 °C | 1.21 °C
PDIA4 (UniProt P13667) | 0.649 °C | 0.586 °C
PRDX3 (UniProt P30048) | -0.858 °C | 1.22 °C
TRIM25 (UniProt Q14258) | -0.133 °C | -0.148 °C
MRPS21 (UniProt P82921) | -1.91 °C | -0.315 °C
ARHGAP1 (UniProt Q07960) | -0.164 °C | -0.569 °C
PALM (UniProt O75781) | 0.667 °C | 
MAP7D3 (UniProt Q8IWC1) | 3.02 °C | 0.788 °C
GDA (UniProt Q9Y2T3) | -1.56 °C | -1.13 °C
UniProt P48595 | 2.58 °C | 
UBR3 (UniProt Q6ZT12) | 0.934 °C | -1.07 °C
FAM210A (UniProt Q96ND0) | 2.22 °C | 1.27 °C
HARS2 (UniProt P49590) | -0.566 °C | 0.0627 °C
CPSF2 (UniProt Q9P2I0) | -0.31 °C | 0.0522 °C
UniProt P0DJD1 | -1.81 °C | 
TSN (UniProt Q15631) | -1.05 °C | -1.09 °C
TUBA1C (UniProt Q9BQE3) | -0.58 °C | -0.524 °C
POLR2L (UniProt P62875) | 3.21 °C | -0.676 °C
XPNPEP3 (UniProt Q9NQH7) | -0.0589 °C | -1.05 °C
L1CAM (UniProt P32004) |  | 3.34 °C

Single records (already shown):
CPSF2 (UniProt Q9P2I0) is listed as melting temperature shift [1] = -0.31 °C; melting temperature shift [2] = 0.0522 °C
WDR75 (UniProt Q8IWA0) is listed as melting temperature shift [2] = 0.758 °C
HARS2 (UniProt P49590) is listed as melting temperature shift [1] = -0.566 °C; melting temperature shift [2] = 0.0627 °C
POLR2L (UniProt P62875) is listed as melting temperature shift [1] = 3.21 °C; melting temperature shift [2] = -0.676 °C

Continuation:

Target | melting temperature shift [1] | melting temperature shift [2]
EIF1 (UniProt P41567) | -0.163 °C | -1.41 °C
WDR77 (UniProt Q9BQA1) | -1.36 °C | -0.457 °C
PFKFB3 (UniProt Q16875) | 0.12 °C | 0.0729 °C
CUL3 (UniProt Q13618) | -0.491 °C | -0.305 °C
UniProt P36406 | -2.62 °C | 
IPO7 (UniProt O95373) | -0.548 °C | -1.19 °C
MALSU1 (UniProt Q96EH3) | -0.125 °C | 1.79 °C
UniProt Q9NY87 | 2.37 °C | 0.448 °C
CTU2 (UniProt Q2VPK5) | -0.893 °C | -0.683 °C
FAR1 (UniProt Q8WVX9) | 0.0883 °C | 0.552 °C
SMG5 (UniProt Q9UPR3) |  | -1.12 °C
SMG1 (UniProt Q96Q15) | 0.222 °C | -0.862 °C
CDC73 (UniProt Q6P1J9) | -0.355 °C | -1.32 °C
WDR36 (UniProt Q8NI36) |  | 0.105 °C
WBP11 (UniProt Q9Y2W2) | -1.33 °C | -1.36 °C
UniProt P07864 | -2.13 °C | 
MRPS18A (UniProt Q9NVS2) | -0.324 °C | 1.69 °C
CENPV (UniProt Q7Z7K6) | 0.072 °C | 1.02 °C
CYCS (UniProt P99999) | -4.74 °C | -0.236 °C
QSOX2 (UniProt Q6ZRP7) | 1.18 °C | 0.477 °C
TXNDC5 (UniProt Q8NBS9) | 1.01 °C | 0.953 °C
SGTA (UniProt O43765) | -0.236 °C | -1.83 °C

Target | melting temperature shift [1] | melting temperature shift [2]
WBSCR16 (UniProt Q96I51) | -0.555 °C | 0.458 °C
RAB35 (UniProt Q15286) | -0.92 °C | 0.274 °C
UniProt P68371 | -0.772 °C | -0.413 °C
UniProt Q9BZG1 | -0.506 °C | 0.0264 °C
ORC3 (UniProt Q9UBD5) | -1.89 °C | -1.09 °C
HAUS4 (UniProt Q9H6D7) |  | 1.08 °C
GID8 (UniProt Q9NWU2) | -0.316 °C | -1.19 °C
WNT5A (UniProt P41221) | -0.902 °C | -0.949 °C
UBL7 (UniProt Q96S82) | -0.566 °C | -0.604 °C
UniProt Q9BXT8 |  | 1.1 °C
UniProt P15313 | 0.0103 °C | 
CANX (UniProt P27824) | 0.269 °C | 2.12 °C
RANBP6 (UniProt O60518) | 0.443 °C | -0.844 °C
GCFC2 (UniProt P16383) | -3.48 °C | -2.78 °C
UniProt O94851 | -0.502 °C | -0.216 °C
UniProt Q15836 |  | 1.68 °C
DNM2 (UniProt P50570) | -0.759 °C | -0.452 °C
LZIC (UniProt Q8WZA0) |  | -3.4 °C
KIAA0391 (UniProt O15091) |  | -1.38 °C
MGST1 (UniProt P10620) | -2.75 °C | 2.23 °C
STX3 (UniProt Q13277) | 0.967 °C | 2.18 °C
ELAVL1 (UniProt Q15717) | -0.582 °C | 0.727 °C

Reference: the supplement of paper PMC10060354, “Discovery of a small molecule ligand of FRS2 that inhibits invasion and tumor growth” (Cellular Oncology, 2022)
